These are yes or no findings as the source states them, for the method shown. For part of these data: Binding calls can cover weak binding; strength is not graded here.
Molecular target: fibronectin EDB-domain
Assay: phage binding assay; individual T7 phage clones incubated with Ni-NTA magnetic beads coated with hexahistidine-tagged TNC-C (30 ug/10 ul beads) or NRP-1-coated beads, room temperature 1 h, washing buffer PBS with 1% BSA and 0.1% Tween-20, elution with 500 mM imidazole and 0.1% NP40, phage titered; binding as fold heptaglycine (G7) control phage or percent of parental PL3 phage; only the target purified

Binder	binding
AGRGRLVR [T7 phage displaying PL3 peptide (AGRGRLVR)]	no binding

Molecular target: recombinant human Tenascin-C FnIII C domain (TNC-C), hexahistidine-tagged (human)
Assay: as above

Binder	binding
AGRGRLVA [T7 phage displaying terminal R > A PL3-derivative peptide (position 8)]	binds
AGRGRLVR [T7 phage displaying PL3 peptide (AGRGRLVR)]	binds
AARGRLVR [T7 phage displaying PL3 with alanine for the first glycine (position 2)]	binds
AGRGRAVR [T7 phage displaying PL3 with alanine for leucine (position 6)]	binds
AGAGRLVR [T7 phage displaying PL3 with alanine for the first arginine (position 3)]	binds
AGRARLVR [T7 phage displaying PL3 with alanine for the second glycine (position 4)]	binds
AGRGALVR [T7 phage displaying PL3 with alanine for the second arginine (position 5)]	binds
AGRGRLAR [T7 phage displaying PL3 with alanine for valine (position 7)]	binds

From PMC7118115, “Tumor-penetrating peptide for systemic targeting of Tenascin-C” (Scientific Reports, 2020)
